The values below come from article doi:10.1101/2025.10.29.685130.

Sequences of proteins named here, by UniProt entry; tags and fusion partners are left off.
UniProt P63141: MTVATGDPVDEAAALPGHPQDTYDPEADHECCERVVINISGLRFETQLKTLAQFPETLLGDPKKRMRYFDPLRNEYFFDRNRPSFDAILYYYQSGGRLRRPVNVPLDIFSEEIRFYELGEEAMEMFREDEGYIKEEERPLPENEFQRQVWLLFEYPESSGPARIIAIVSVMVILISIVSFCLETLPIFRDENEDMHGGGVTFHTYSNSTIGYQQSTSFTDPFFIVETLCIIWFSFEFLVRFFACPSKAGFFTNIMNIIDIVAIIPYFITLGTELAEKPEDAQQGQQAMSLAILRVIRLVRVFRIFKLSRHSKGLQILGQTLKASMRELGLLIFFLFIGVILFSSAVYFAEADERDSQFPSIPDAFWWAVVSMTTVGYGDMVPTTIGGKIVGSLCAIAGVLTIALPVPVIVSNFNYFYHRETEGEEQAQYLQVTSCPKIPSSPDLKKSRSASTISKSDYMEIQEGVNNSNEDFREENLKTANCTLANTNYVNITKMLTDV

The chains are these.
B1: thioredoxin (protein, UniProt P10639 1-105)
chain: MVKLIESKEAFQEALAAAGDKLVVVDFSATWCGPCKMIKPFFHSLCDKYSNVVFLEVDVDDCQDVAADCEVKCMPTFQFYKKGQKVGEFSGANKEKLEASITEYA
B2: Wiskott-Aldrich syndrome protein family member 1 (protein, UniProt Q8R5H6 1-559)
chain: MPLVKRNIDPRHLCHTALPRGIKNELECVTNISLANIIRQLSSLSKYAEDIFGELFNEAHSFSFRVNSLQERVDRLSVSVTQLDPKEEELSLQDITMRKAFRSSTIQDQQLFDRKTLPIPLQETYDVCEQPPPLNILTPYRDDGKEGLKFYTNPSYFFDLWKEKMLQDTEDKRKEKRKQKQKNLDRPHEPEKVPRAPHDRRREWQKLAQGPELAEDDADLLHKHIEVANGPASHYETRPQTYVDHMDGSYSLSALPFSQMSELLTRAEERVLVRPHEPPPPPPMHGAGDAKPTPTCISSATGLIENRPQSPAAGRTPVFVSPTPPPPPPPLPSALSTSSLRASMTSTPPPPVPPPPPPPATALQAPAVPPPPAPLQIAPGVLHPAPPPIAPPLVQPSPPVARAAPVCETVPVHPLPQGEVQGLPPPPPPPPLPPPGIRPSSPVAVAALAHPPSGLHPAPSTAPGPHAPLMPPSPPSQVLPASEPKRHPSTLPVISDARSVLLEAIRKGIQLRKVEEQREQEAKHERIENDVATILSRRIAVEYSDSEDDSEFDEVDWLE
B3: Arhgap26 (protein, UniProt Q6ZQ82 1-814)
chain: MGLPALEFSDCCLDSPHFRETLKSHEAELDKTNKFIKELIKDGKSLISALKNLSSAKRKFADSLNEFKFQCIGDAETDDEMCIARSLQEFAAVLRNLEDERSRMIENASEVLITPLEKFRKEQIGAAREAKKKYDKETEKYCGTLEKHLNLSSKKKESQLQEADSQVDLVRQHFYEVSLEYVFKVQEVQERKMFEFVEPLLAFLQGLFTFYHHGYELAKDFGDFKTQLTISIQNTRNRFEGTRSEVESLMKKMKENPLEHKTISPYTMEGYLYVQEKRHFGTSWVKHYCTYQRDSKQITMVPFDQKSGGKGGEDESVTLKSCTRRKTDSIEKRFCFDVEAVDRPGVITMQALSEEDRRLWMEAMDGREPVYNSNRDSQSEGTAQLDSIGFSIIRKCIHAVETRGINEQGLYRIVGVNSRVQKLLSVLMDPKAASETETDICAEWEIKTVTSALKTYLRMLPGPLMMYQFQRSFIKAAKLENQETRVSEIHSLVHRLPEKNRQMLQLLMNHLANVANNHKQNLMTVANLGVVFGPTLLRPQEETVAAIMDIKFQNIVIEILIENHEKIFNTVPDVPLTNAQLHLSRKKSSDSKPPSCSKRPLTLFHAVPSTEKQEQRNSIINSSLESVSSSANSILNSSSSLQPNLNSSDSNLDVVKPSRPSSLPPNPSPTSPLSPSWPMFSAPSSPMPTSSTSSDSSPIRSVAGFVWFSVAAVVLSLAWSSLHAVFSLLVNFVPCHPNLHLLFDRPEEAVREDSSTPFRKAKALYACQAEHDSELSFTAGTVFDNVHPSQEPGWLEGTLNGKTGLIPENYVEFL
B4: CCT4 (protein, UniProt P80315 1-539)
chain: MPENVASRSGAPTAGPGSRGKSAYQDRDKPAQIRFSNISAAKAVADAIRTSLGPKGMDKMIQDGKGDVTITNDGATILKQMQVLHPAARMLVELSKAQDIEAGDGTTSVVIIAGSLLDSCTKLLQKGIHPTIISESFQKALEKGLEILTDMSRPVQLSDRETLLNSATTSLNSKVVSQYSSLLSPMSVNAVMKVIDPATATSVDLRDIKIVKKLGGTIDDCELVEGLVLTQKVANSGITRVEKAKIGLIQFCLSAPKTDMDNQIVVSDYAQMDRVLREERAYILNLVKQIKKTGCNVLLIQKSILRDALSDLALHFLNKMKIMVVKDVEREDIEFICKTIGTKPVAHIDQFTADMLGSAELAEEVSLNGSGKLFKITGCTSPGKTVTIVVRGSNKLVIEEAERSIHDALCVIRCLVKKRALIAGGGAPEIELALRLTEYSRTLSGMESYCVRAFADAMEVIPSTLAENAGLNPISTVTELRNRHAQGEKTTGINVRKGGISNILEEMVVQPLLVSVSALTLATETVRSILKIDDVVNTR
B5: dynamin 1 (protein, UniProt P39053 1-867)
chain: MGNRGMEDLIPLVNRLQDAFSAIGQNADLDLPQIAVVGGQSAGKSSVLENFVGRDFLPRGSGIVTRRPLVLQLVNSTTEYAEFLHCKGKKFTDFEEVRLEIEAETDRVTGTNKGISPVPINLRVYSPHVLNLTLVDLPGMTKVPVGDQPPDIEFQIRDMLMQFVTKENCLILAVSPANSDLANSDALKIAKEVDPQGQRTIGVITKLDLMDEGTDARDVLENKLLPLRRGYIGVVNRSQKDIDGKKDITAALAAERKFFLSHPSYRHLADRMGTPYLQKVLNQQLTNHIRDTLPGLRNKLQSQLLSIEKEVDEYKNFRPDDPARKTKALLQMVQQFAVDFEKRIEGSGDQIDTYELSGGARINRIFHERFPFELVKMEFDEKELRREISYAIKNIHGIRTGLFTPDMAFETIVKKQVKKIREPCLKCVDMVISELISTVRQCTKKLQQYPRLREEMERIVTTHIREREGRTKEQVMLLIDIELAYMNTNHEDFIGFANAQQRSNQMNKKKTSGNQDEILVIRKGWLTINNIGIMKGGSKEYWFVLTAENLSWYKDDEEKEKKYMLSVDNLKLRDVEKGFMSSKHIFALFNTEQRNVYKDYRQLELACETQEEVDSWKASFLRAGVYPERVGDKEKASETEENGSDSFMHSMDPQLERQVETIRNLVDSYMAIVNKTVRDLMPKTIMHLMINNTKEFIFSELLANLYSCGDQNTLMEESAEQAQRRDEMLRMYHALKEALSIIGDINTTTVSTPMPPPVDDSWLQVQSVPAGRRSPTSSPTPQRRAPAVPPARPGSRGPAPGPPPAGSALGGAPPVPSRPGASPDPFGPPPQVPSRPNRAPPGVPSLGAWRLNSPQGKHENRAGKARL
B6: serine/threonine-protein kinase DCLK1 (enzyme, UniProt Q9JLM8 1-756)
chain: MSFGRDMELEHFDERDKAQRYSRGSRVNGLPSPTHSAHCSFYRTRTLQTLSSEKKAKKVRFYRNGDRYFKGIVYAISPDRFRSFEALLADLTRTLSDNVNLPQGVRTIYTIDGLKKISSLDQLVEGESYVCGSIEPFKKLEYTKNVNPNWSVNVKTTSASRAVSSLATAKGGPSEVRENKDFIRPKLVTIIRSGVKPRKAVRILLNKKTAHSFEQVLTDITDAIKLDSGVVKRLYTLDGKQVMCLQDFFGDDDIFIACGPEKFRYQDDFLLDESECRVVKSTSYTKIASASRRGTTKSPGPSRRSKSPASTSSVNGTPGSQLSTPRSGKSPSPSPTSPGSLRKQRISQHGGSSTSLSSTKVCSSMDENDGPGEGDELGRRHSLQRGWRREESEEGFQIPATITERYKVGRTIGDGNFAVVKECIERSTAREYALKIIKKSKCRGKEHMIQNEVSILRRVKHPNIVLLIEEMDVPTELYLVMELVKGGDLFDAITSTSKYTERDASGMLYNLASAIKYLHSLNIVHRDIKPENLLVYEHQDGSKSLKLGDFGLATIVDGPLYTVCGTPTYVAPEIIAETGYGLKVDIWAAGVITYILLCGFPPFRGSGDDQEVLFDQILMGQVDFPSPYWDNVSDSAKELINMMLLVNVDQRFSAVQVLEHPWVNDDGLPENEHQLSVAGKIKKHFNTGPKPSSTAAGVSVIATTALDKERQVFRRRRNQDVRSRYKAQPAPPELNSESEDYSPSSSETVRSPNSPF
B7: 2’,3’-cyclic-nucleotide 3’-phosphodiesterase (enzyme, UniProt P16330 1-420)
chain: MNTSFTRKSHTFLPKLFFRKMSSSGAKEKPELQFPFLQDEDTVATLHECKTLFILRGLPGSGKSTLARLILEKYHDGTKMVSADAYKIIPGSRADFSEAYKRLDEDLAGYCRRDIRVLVLDDTNHERERLDQLFEMADQYQYQVVLVEPKTAWRLDCAQLKEKNQWQLSADDLKKLKPGLEKDFLPLYFGWFLTKKSSETLRKAGQVFLEELGNHKAFKKELRHFISGDEPKEKLELVSYFGKRPPGVLHCTTKFCDYGKAAGAEEYAQQEVVKRSYGKAFKLSISALFVTPKTAGAQVVLTDQELQLWPSDLDKPSASEGLPPGSRAHVTLGCAADVQPVQTGLDLLDILQQVKGGSQGEAVGELPRGKLYSLGKGRWMLSLTKKMEVKAIFTGYYGKGKPVPIHGSRKGGAMQICTII
B8: Arhgef2 (protein, UniProt Q60875 1-985)
chain: MSRIESLTRARIDRSKEQATKTREKEKMKEAKDARYTNGHLFTTISVSGMTMCYACNKSITAKEALICPTCNVTIHNRCKDTLANCTKVKQKQQKAALLRNNTALQSVSLRSKTTTRERPTSAIYPSDSFRQSLLGSRRGLSSLSLAKSVSTTNIAGHFNDESPLGLRQILSQSTDSLNMRNRTLSVESLIDEGVEVFYNELMSDFEMDEKDFEADSWSLAVDSSFLQQHKKEVMKKQDVIYELIQTELHHVRTLKIMTRLFRTGMLEELQMEPEVVQGLFPCVDELSDIHTRFLNQLLERRRQALCPGSTRNFVIHRLGDLLISQFSGSNAEQMRKTYSEFCSRHTKALKLYKELYARDKRFQQFIRKMTRSAVLKRHGVQECILLVTQRITKYPVLINRILQNSHGVEEEYQDLASALGLVKELLSNVDQDVHELEKEARLQEIYNRMDPRAQTPVPGKGPFGRDELLRRKLIHEGCLLWKTATGRFKDVLLLLMTDVLVFLQEKDQKYIFTSLDKPSVVSLQNLIVRDIANQAKGMFLISSGPPEMYEVHAASRDDRTTWIRVIQQSVRLCPSREDFPLIETEDKAYLRRIKTKLQQKNQALVELLQKNVELFAEMVHFQALKAGFVGMPPPALPRGLFRLESFESLRGERLLKDALREVEGLKDLLLGPCVDLPMTSREPALPLDSDSGSCPGVTANGEARTFNGSIELCRADSDSSQKDRNGNQLRSPQEEVLQPLINLYGLLHGLQAVVVQQERLMEALFPEGPERWEKLSRANSRDGEAGRAAVASVTPEKQATELALLQRQHTLLQEELRRCQRLGEERATEAGSLEARLRESEQARALLEREAEEIRRQLAALGQNEPLPAEAPWARRPLDPRRRSLPAGDALYLSFNPPQPSRGHDRLDLPVTVRSLHRPFDDREAQELGSPEDRLQDSSDPDTGSEEEVSSRLSPPHSPRDFTRMQDIPEETESRDGEPTASES
B9: myristoylated alanine-rich C-kinase substrate (protein, UniProt P26645 1-309)
chain: MGAQFSKTAAKGEATAERPGEAAVASSPSKANGQENGHVKVNGDASPAAAEPGAKEELQANGSAPAADKEEPASGSAATPAAAEKDEAAAATEPGAGAADKEAAEAEPAEPSSPAAEAEGASASSTSSPKAEDGAAPSPSSETPKKKKKRFSFKKSFKLSGFSFKKSKKESGEGAEAEGATAEGAKDEAAAAAGGEGAAAPGEQAGGAGAEGAAGGEPREAEAAEPEQPEQPEQPAAEEPQAEEQSEAAGEKAEEPAPGATAGDASSAAGPEQEAPAATDEAAASAAPAASPEPQPECSPEAPPAPTAE

No constants are given. Whether binding was seen depends on the method and setting. Binding seen in cells or lysates may run through a third protein. These calls come from enrichment with a bait or labelling near it, and not all partners need be listed.

In the experiment the target is phosphoY458 Kv1.2 (mouse) (UniProt P63141). In words: affinity purification with mass spectrometry.
For B1, the binding entry was “binds”.

For the molecule B2, the binding entry is “binds”.

Turning to B3, the binding entry is on record as “binds”.

For the molecule B4, the binding entry was “binds”.

As for B5, the binding entry is listed as “binds”.

For B6, the binding entry is listed as “binds”.

As to B7, the binding result was “binds”.

In the case of B8, the binding result is reported as “binds”.

With B9, the binding result is reported as “binds”.
